# Laboratory results as given in US20140038203A1, “METHODS FOR DETECTING OR PREDICTING KIDNEY DISEASE” (MUSC FOUNDATION FOR RESEARCH DEVELOPMENT, priority 2012, published 2014).
# B1: Trypsin-2 (protein, UniProt P07478 24-247, looked up)
# Trypsin-2: IVGGYICEENSVPYQVSLNSGYHFCGGSLISEQWVVSAGHCYKSRIQVRLGEHNIEVLEGNEQFINAAKIIRHPKYNSRTLDNDILLIKLSSPAVINSRVSAISLPTAPPAAGTESLISGWGNTLSSGADYPDELQCLDAPVLSQAECEASYPGKITNNMFCVGFLEGGKDSCQGDSGGPVVSNGELQGIVSWGYGCAQKNRPGVYTKVYNYVDWIKDTIAANS
# B2: Ig alpha-1 chain C region (protein, UniProt P01876 1-398, looked up)
# Immunoglobulin heavy constant …: ASPTSPKVFPLSLCSTQPDGNVVIACLVQGFFPQEPLSVTWSESGQGVTARNFPPSQDASGDLYTTSSQLTLPATQCLAGKSVTCHVKHYTNPSQDVTVPCPVPSTPPTPSPSTPPTPSPSCCHPRLSLHRPALEDLLLGSEANLTCTLTGLRDASGVTFTWTPSSGKSAVQGPPERDLCGCYSVSSVLPGCAEPWNHGKTFTCTAAYPESKTPLTATLSKSGNTFRPEVHLLPPPSEELALNELVTLTCLARGFSPKDVLVRWLQGSQELPREKYLTWASRQEPSQGTTTFAVTSILRVAAEDWKKGDTFSCMVGHEALPLAFTQKTIDRLADWQMPPPYVVLDLPQETLEEETPGANLWPTTITFLTLFLLSLFYSTALTVTSVRGPSGNREGPQY
# B3: Ig gamma-3 chain C region (protein, UniProt P01860 1-446, looked up)
# Immunoglobulin heavy constant …: ASTKGPSVFPLAPCSRSTSGGTAALGCLVKDYFPEPVTVSWNSGALTSGVHTFPAVLQSSGLYSLSSVVTVPSSSLGTQTYTCNVNHKPSNTKVDKRVELKTPLGDTTHTCPRCPEPKSCDTPPPCPRCPEPKSCDTPPPCPRCPEPKSCDTPPPCPRCPAPELLGGPSVFLFPPKPKDTLMISRTPEVTCVVVDVSHEDPEVQFKWYVDGVEVHNAKTKPREEQYNSTFRVVSVLTVLHQDWLNGKEYKCKVSNKALPAPIEKTISKTKGQPREPQVYTLPPSREEMTKNQVSLTCLVKGFYPSDIAVEWESSGQPENNYNTTPPMLDSDGSFFLYSKLTVDKSRWQQGNIFSCSVMHEALHNRFTQKSLSLSPELQLEESCAEAQDGELDGLWTTITIFITLFLLSVCYSATVTFFKVKWIFSSVVDLKQTIIPDYRNMIGQGA
# B4: Cystatin-C (protein, UniProt P01034 27-146, looked up)
# Cystatin-C: SSPGKPPRLVGGPMDASVEEEGVRRALDFAVGEYNKASNDMYHSRALQVVRARKQIVAGVNYFLDVELGRTTCTKTQPNLDNCPFHDQPHLKRKAFCSFQIYAVPWQGTMTLSKSTCQDA
# B5: N-acetylglucosamine-6-sulfatase (protein, UniProt P15586 37-552, looked up)
# N-acetylglucosamine-6-sulfatas …: VFGVAAGTRRPNVVLLLTDDQDEVLGGMTPLKKTKALIGEMGMTFSSAYVPSALCCPSRASILTGKYPHNHHVVNNTLEGNCSSKSWQKIQEPNTFPAILRSMCGYQTFFAGKYLNEYGAPDAGGLEHVPLGWSYWYALEKNSKYYNYTLSINGKARKHGENYSVDYLTDVLANVSLDFLDYKSNFEPFFMMIATPAPHSPWTAAPQYQKAFQNVFAPRNKNFNIHGTNKHWLIRQAKTPMTNSSIQFLDNAFRKRWQTLLSVDDLVEKLVKRLEFTGELNNTYIFYTSDNGYHTGQFSLPIDKRQLYEFDIKVPLLVRGPGIKPNQTSKMLVANIDLGPTILDIAGYDLNKTQMDGMSLLPILRGASNLTWRSDVLVEYQGEGRNVTDPTCPSLSPGVSQCFPDCVCEDAYNNTYACVRTMSALWNLQYCEFDDQEVFVEVYNLTADPDQITNIAKTIDPELLGKMNYRLMMLQSCSGPTCRTPGVFDPGYRFDPRLMFSNRGSVRTRRFSKHLL
# B6: Ubiquitin carboxyl-terminal hydrolase 36 (protein, UniProt Q9P275 1-1123, looked up)
# Ubiquitin carboxyl-terminal …: MPIVDKLKEALKPGRKDSADDGELGKLLASSAKKVLLQKIEFEPASKSFSYQLEALKSKYVLLNPKTEGASRHKSGDDPPARRQGSEHTYESCGDGVPAPQKVLFPTERLSLRWERVFRVGAGLHNLGNTCFLNATIQCLTYTPPLANYLLSKEHARSCHQGSFCMLCVMQNHIVQAFANSGNAIKPVSFIRDLKKIARHFRFGNQEDAHEFLRYTIDAMQKACLNGCAKLDRQTQATTLVHQIFGGYLRSRVKCSVCKSVSDTYDPYLDVALEIRQAANIVRALELFVKADVLSGENAYMCAKCKKKVPASKRFTIHRTSNVLTLSLKRFANFSGGKITKDVGYPEFLNIRPYMSQNNGDPVMYGLYAVLVHSGYSCHAGHYYCYVKASNGQWYQMNDSLVHSSNVKVVLNQQAYVLFYLRIPGSKKSPEGLISRTGSSSLPGRPSVIPDHSKKNIGNGIISSPLTGKRQDSGTMKKPHTTEEIGVPISRNGSTLGLKSQNGCIPPKLPSGSPSPKLSQTPTHMPTILDDPGKKVKKPAPPQHFSPRTAQGLPGTSNSNSSRSGSQRQGSWDSRDVVLSTSPKLLATATANGHGLKGNDESAGLDRRGSSSSSPEHSASSDSTKAPQTPRSGAAHLCDSQETNCSTAGHSKTPPSGADSKTVKLKSPVLSNTTTEPASTMSPPPAKKLALSAKKASTLWRATGNDLRPPPPSPSSDLTHPMKTSHPVVASTWPVHRARAVSPAPQSSSRLQPPFSPHPTLLSSTPKPPGTSEPRSCSSISTALPQVNEDLVSLPHQLPEASEPPQSPSEKRKKTFVGEPQRLGSETRLPQHIREATAAPHGKRKRKKKKRPEDTAASALQEGQTQRQPGSPMYRREGQAQLPAVRRQEDGTQPQVNGQQVGCVTDGHHASSRKRRRKGAEGLGEEGGLHQDPLRHSCSPMGDGDPEAMEESPRKKKKKKRKQETQRAVEEDGHLKCPRSAKPQDAVVPESSSCAPSANGWCPGDRMGLSQAPPVSWNGERESDVVQELLKYSSDKAYGRKVLTWDGKMSAVSQDAIEDSRQARTETVVDDWDEEFDRGKEKKIKKFKREKRRNFNAFQKLQTRRNFWSVTHPAKAASLSYRR
# B7: Apolipoprotein C-II (protein, UniProt P02655 29-101, looked up)
# Apolipoprotein C-II: DEMPSPTFLTQVKESLSSYWESAKTAAQNLYEKTYLPAVDEKLRDLYSKSTAAMSTYTGIFTDQVLSVLKGEE
# B8: Protein FAM3C (protein, UniProt Q92520 25-227, looked up)
# Protein FAM3C: QVFEIKMDASLGNLFARSALDTAARSTKPPRYKCGISKACPEKHFAFKMASGAANVVGPKICLEDNVLMSGVKNNVGRGINVALANGKTGEVLDTKYFDMWGGDVAPFIEFLKAIQDGTIVLMGTYDDGATKLNDEARRLIADLGSTSITNLGFRDNWVFCGGKGIKTKSPFEQHIKNNKDTNKYEGWPEVVEMEGCIPQKQD
# B9: Chromogranin-A (protein, UniProt P10645 19-457, looked up)
# Chromogranin-A: LPVNSPMNKGDTEVMKCIVEVISDTLSKPSPMPVSQECFETLRGDERILSILRHQNLLKELQDLALQGAKERAHQQKKHSGFEDELSEVLENQSSQAELKEAVEEPSSKDVMEKREDSKEAEKSGEATDGARPQALPEPMQESKAEGNNQAPGEEEEEEEEATNTHPPASLPSQKYPGPQAEGDSEGLSQGLVDREKGLSAEPGWQAKREEEEEEEEEAEAGEEAVPEEEGPTVVLNPHPSLGYKEIRKGESRSEALAVDGAGKPGAEEAQDPEGKGEQEHSQQKEEEEEMAVVPQGLFRGGKSGELEQEEERLSKEWEDSKRWSKMDQLAKELTAEKRLEGQEEEEDNRDSSMKLSFRARAYGFRGPGPQLRRGWRPSSREDSLEAGLPLQVRGYPEEKKEEEGSANRRPEDQELESLSAIEAELEKVAHQLQALRRG
# B10: Phosphatidylethanolamine-binding protein 1 (protein, UniProt P30086 2-187, looked up)
# Phosphatidylethanolamine-bindi …: PVDLSKWSGPLSLQEVDEQPQHPLHVTYAGAAVDELGKVLTPTQVKNRPTSISWDGLDSGKLYTLVLTDPDAPSRKDPKYREWHHFLVVNMKGNDISSGTVLSDYVGSGPPKGTGLHRYVWLVYEQDRPLKCDEPILSNRSGDHRGKFKVASFRKKYELRAPVAGTCYQAEWDDYVPKLYEQLSGK
# B11: 3-mercaptopyruvate sulfurtransferase (protein, UniProt P25325 2-297, looked up)
# 3-mercaptopyruvate …: ASPQLCRALVSAQWVAEALRAPRAGQPLQLLDASWYLPKLGRDARREFEERHIPGAAFFDIDQCSDRTSPYDHMLPGAEHFAEYAGRLGVGAATHVVIYDASDQGLYSAPRVWWMFRAFGHHAVSLLDGGLRHWLRQNLPLSSGKSQPAPAEFRAQLDPAFIKTYEDIKENLESRRFQVVDSRATGRFRGTEPEPRDGIEPGHIPGTVNIPFTDFLSQEGLEKSPEEIRHLFQEKKVDLSKPLVATCGSGVTACHVALGAYLCGKPDVPIYDGSWVEWYMRARPEDVISEGRGKTH
# B12: Myc box-dependent-interacting protein 1 (protein, UniProt O00499 2-593, looked up)
# Myc box-dependent-interacting …: AEMGSKGVTAGKIASNVQKKLTRAQEKVLQKLGKADETKDEQFEQCVQNFNKQLTEGTRLQKDLRTYLASVKAMHEASKKLNECLQEVYEPDWPGRDEANKIAENNDLLWMDYHQKLVDQALLTMDTYLGQFPDIKSRIAKRGRKLVDYDSARHHYESLQTAKKKDEAKIAKPVSLLEKAAPQWCQGKLQAHLVAQTNLLRNQAEEELIKAQKVFEEMNVDLQEELPSLWNSRVGFYVNTFQSIAGLEENFHKEMSKLNQNLNDVLVGLEKQHGSNTFTVKAQPSDNAPAKGNKSPSPPDGSPAATPEIRVNHEPEPAGGATPGATLPKSPSQLRKGPPVPPPPKHTPSKEVKQEQILSLFEDTFVPEISVTTPSQFEAPGPFSEQASLLDLDFDPLPPVTSPVKAPTPSGQSIPWDLWEPTESPAGSLPSGEPSAAEGTFAVSWPSQTAEPGPAQPAEASEVAGGTQPAAGAQEPGETAASEAASSSLPAVVVETFPATVNGTVEGGSGAGRLDLPPGFMFKVQAQHDYTATDTDELQLKAGDVVLVIPFQNPEEQDEGWLMGVKESDWNQHKELEKCRGVFPENFTERVP
# B13: Glutaredoxin-1 (protein, UniProt P35754 2-106, looked up)
# Glutaredoxin-1: AQEFVNCKIQPGKVVVFIKPTCPYCRRAQEILSQLPIKQGLLEFVDITATNHTNEIQDYLQQLTGARTVPRVFIGKDCIGGCSDLVSLQQSGELLTRLKQIGALQ
# B14: Gastrotropin (protein, UniProt P51161 2-128, looked up)
# Gastrotropin: AFTGKFEMESEKNYDEFMKLLGISSDVIEKARNFKIVTEVQQDGQDFTWSQHYSGGHTMTNKFTVGKESNIQTMGGKTFKATVQMEGGKLVVNFPNYHQTSEIVGDKLVEVSTIGGVTYERVSKRLA
# Experiment: RRT study: LC-MS/MS urinary proteomics, AKI after cardiac surgery, RRT vs No RRT
# Parameters: species or system human
# Conditions: direction of urinary abundance, patients who did vs did not require RRT/dialysis
row,Molecule,Up or Down
1,B1,Up
2,B2,Up
3,B3,Up
4,B4,Up
5,B5,Up
6,B6,Up
7,B7,Up
8,B8,Up
9,B9,Up
10,B10,Up
11,B11,Up
12,B12,Up
13,B13,Up
14,B14,Up

# Same assay, conditions: patients who did vs did not require RRT/dialysis; read with the Up or Down column
row,Molecule,Mean Fold Change
1,B1,2.555
2,B2,1.839
3,B3,3.683
4,B4,4.004
5,B5,2.783
6,B6,2.55
7,B7,8.034
8,B8,1.912
9,B9,7.558
10,B11,2.229
11,B12,2.785
12,B13,2.006
